Source: publication PMC4424493
Results are given in words; binding and its absence hold for the method and conditions named. In cells and extracts the contact can be indirect. Some results given as binding are weak or reduced against the parent protein; the word gives no strength. Sequences can lack the tags named with a protein.

Molecular target: T1, GST-galectin-8 (rat) (UniProt Q62665)
T1 sequence: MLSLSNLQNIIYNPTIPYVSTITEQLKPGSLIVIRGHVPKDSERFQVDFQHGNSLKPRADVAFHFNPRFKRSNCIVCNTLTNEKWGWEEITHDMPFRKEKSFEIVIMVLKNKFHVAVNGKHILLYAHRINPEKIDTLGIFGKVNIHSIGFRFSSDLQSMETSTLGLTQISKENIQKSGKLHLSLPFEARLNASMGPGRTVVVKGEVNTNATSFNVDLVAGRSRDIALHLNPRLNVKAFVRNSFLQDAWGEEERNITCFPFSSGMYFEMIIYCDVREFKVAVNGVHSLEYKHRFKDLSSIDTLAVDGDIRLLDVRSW
Experiment: pull-down; GST-gal-8-loaded beads; proteins of newborn mouse calvaria incubated 16 hr at 4°C; washed in PBS+1% Triton X-100; eluted with 0.5M lactose; SDS-PAGE and Western blotting; GST-loaded beads as control; only the target purified

- binding: binds
B1: urokinase plasminogen activator receptor (uPAR), from calvaria of newborn mice (receptor, UniProt P35456 24-298)
chain: LQCMQCESNQSCLVEECALGQDLCRTTVLREWQDDRELEVVTRGCAHSEKTNRTMSYRMGSMIISLTETVCATNLCNRPRPGARGRAFPQGRYLECASCTSLDQSCERGREQSLQCRYPTEHCIEVVTLQSTERSLKDEDYTRGCGSLPGCPGTAGFHSNQTFHFLKCCNYTHCNGGPVLDLQSFPPNGFQCYSCEGNNTLGCSSEEASLINCRGPMNQCLVATGLDVLGNRSYTVRGCATASWCQGSHVADSFPTHLNVSVSCCHGSGCNSPTG
